# From PubChem BioAssay AID1671190 (National Center for Advancing Translational Sciences (NCATS), 2021)
# The chains behind the UniProt entries cited, without tags or fusion partners. Where a name states a change or a piece, a line headed by the entry shows the natural chain unless it says otherwise.
# UniProt P18054: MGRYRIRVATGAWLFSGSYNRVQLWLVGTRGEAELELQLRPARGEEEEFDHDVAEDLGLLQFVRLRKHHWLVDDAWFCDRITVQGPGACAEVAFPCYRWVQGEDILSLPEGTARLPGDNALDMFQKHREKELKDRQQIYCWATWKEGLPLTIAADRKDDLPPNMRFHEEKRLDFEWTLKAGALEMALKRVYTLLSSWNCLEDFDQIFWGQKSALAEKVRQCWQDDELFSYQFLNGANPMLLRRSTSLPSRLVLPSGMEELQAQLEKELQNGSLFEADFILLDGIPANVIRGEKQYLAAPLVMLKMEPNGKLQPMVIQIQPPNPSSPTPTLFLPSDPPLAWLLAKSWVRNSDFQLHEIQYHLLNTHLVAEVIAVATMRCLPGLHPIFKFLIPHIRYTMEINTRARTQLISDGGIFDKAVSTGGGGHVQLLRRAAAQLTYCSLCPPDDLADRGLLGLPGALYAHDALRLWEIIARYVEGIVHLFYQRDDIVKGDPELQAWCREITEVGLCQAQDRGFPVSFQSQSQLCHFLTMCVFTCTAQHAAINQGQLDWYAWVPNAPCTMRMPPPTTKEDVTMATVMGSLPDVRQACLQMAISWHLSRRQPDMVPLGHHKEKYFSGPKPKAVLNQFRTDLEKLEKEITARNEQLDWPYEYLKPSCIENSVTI
# In all, about 580,000 compounds went through this assay and about 6,100 (1.1%) were called active. The inconclusive results got no clear call from the source; some entries with a clear call stand among them for comparison. Calls follow the shape of the dose curve; as a rule, active = well fitted inhibition curve with a large enough effect; inconclusive = small, poorly fitted or top-dose-only effect, or another doubt; inactive = no such curve, though single readings can be large or run the other way. Where the call is inconclusive, the potency comes from a doubtful curve fit.
# Molecular target: Polyunsaturated fatty acid lipoxygenase ALOX12 (Homo sapiens) (UniProt P18054)
# Assay: Primary qHTS assay for inhibitors of human arachidonate 12S-lipoxygenase (ALOX12): Round 2
# Details: purified 12hLO, xylenol orange hydroperoxide absorbance; series mostly up to 108 µM
# Outline: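 Purified human 12hLO (150 nM final) in 25 mM Hepes, 0.01% Triton X-100, pH 7.0 was preincubated 15 min at room temperature with compound. Then 40 uM arachidonic acid was added, 30 min. Hydroperoxide was read by Fe-XO absorbance ratio 573/405 nm.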
# Potency is read from the fitted curve at half-maximal effect.
row,SMILES,Potency
1,O=C(c1ccco1)N1CCC(C2CCN(Cc3cccnc3)CC2)C1 (centres undefined),inactive
2,N#Cc1c(-c2ccccc2)cc(-c2cccs2)nc1SCCS(=O)Cc1ccc(Cl)cc1 (centres undefined),"inconclusive: 22.4 µM [inhibitor, partial curve, poor fit]"
3,O=c1c2cnn(-c3ccc(F)cc3)c2ncn1CC(O)COc1ccc(Cl)cc1Cl (centres undefined),"inconclusive: 39.8 µM [inhibitor, partial curve]"
4,O=C(Nc1cccnc1)Nc1ccc(Br)cc1Cl,active: 15.8 µM
5,O=C(NCCn1ccn2nc(-c3ccc(F)cc3)cc2c1=O)c1n[nH]c2c1CCCC2,"inconclusive: 4.47 µM [inhibitor, partial curve, poor fit]"
6,CCn1c(SCC(=O)NCCc2ccc(OC)c(OC)c2)nc2c([nH]c3ccccc32)c1=O,"inconclusive: 17.8 µM [inhibitor, partial curve, poor fit]"
7,Cc1ccc(N/N=C/c2ccc(C)s2)cc1,active: 56.2 µM
8,CC(NC(=O)/C(C#N)=C\c1ccccc1)C12CC3CC(CC(C3)C1)C2 (centres undefined),"inconclusive: 79.4 µM [inhibitor, partial curve, poor fit]"
9,CC(NCc1nc2c([nH]1)c(=O)n(C)c(=O)n2C)c1ccccc1 (centres undefined),inactive
10,CC/C(=N\NC(=O)c1c(-c2ccccc2)noc1C)c1ccc(C)o1,inactive
11,Cc1cc(Cl)ccc1OC(C)C(=O)OCC(=O)c1ccc[nH]1 (centres undefined),"inconclusive: 35.5 µM [inhibitor, partial curve, poor fit]"
12,CCOC(=O)c1oc2cc(O)cc(C)c2c(=O)c1-c1cscn1,"inconclusive: 50.1 µM [inhibitor, partial curve, poor fit]"
13,O=C(O)C(=Cc1cccs1)C(=O)O,"inconclusive: 35.5 µM [inhibitor, partial curve, poor fit]"
14,O=S(=O)(N[C@H]1CO[C@H]2[C@@H]1OC[C@@H]2n1nnnc1Oc1ccc(-n2cncn2)cc1)c1cccs1,inactive
15,COc1ccc(C(=O)Oc2ccccc2Cl)cc1,"inconclusive: 7.08 µM [inhibitor, full curve]"
16,COc1ccc(-c2noc(CCC(=O)N3CCN(c4ccccc4C)CC3)n2)cc1,"inconclusive: 89.1 µM [inhibitor, partial curve, poor fit]"
17,O=C(NC[C@H]1COCc2nc3ccccc3n21)c1cnccn1,inactive
18,COc1ccc(OCCNC(=O)c2cc(C3CC3)nc3ccccc23)cc1,"inconclusive: 70.8 µM [inhibitor, single point]"
19,CCN(CC)C(=O)CN1CCN(c2ccccc2F)CC1,"inconclusive: 0.224 µM [inhibitor, full curve, poor fit]"

# Individual results from the results shown:
# `O=C(NCCn1ccn2nc(-c3ccc(F)cc3)cc2c1=O)c1n[nH]c2c1CCCC2` – Potency: inconclusive: 4.47 µM [inhibitor, partial curve, poor fit]
# `O=c1c2cnn(-c3ccc(F)cc3)c2ncn1CC(O)COc1ccc(Cl)cc1Cl` (centres undefined) – Potency: inconclusive: 39.8 µM [inhibitor, partial curve]
